# According to PubChem BioAssay AID1508600 (Functional Genomics Laboratory (NCATS/FGL), 2020):
# Out of some 53,000 sequences screened, about 3,700 (7%) were called active.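 The calls were made as follows: active = gene knockdowns whose robust z-score for IL-1 alpha signal is at least 2 or at most -2, so actives lie on both sides; inactive = the rest.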 Some of the results follow.
# Test: Components of the Cytosolic LPS Sensing Pathway: Gene Identification via Genome-wide siRNA Screen;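 also: robust z of the log signal after scaling to non-targeting control siRNA wells of the plate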
# Conditions: RAW264.7 macrophages, IL-1a HTRF, actives lie on both sides, screened at 100 nM (by protocol), cells primed 5 h with Pam3CSK4 first
# Outline: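 Mouse macrophage line RAW264.7 is transfected with siRNA (100 nM final), grown 48h, primed with TLR ligand Pam3CSK4 5 h and given intracellular LipidA 24 h. IL-1a in supernatant is read by HTRF and viability by luminescence.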
row,Sequence,z-score
1,CGGAUAACGGGAAUUUUAUTT against Rpia,inactive: 0.535
2,GCAUUUCCCAUCCUCUUGATT against Mrpl51,inactive: -0.174
3,GGAUGUUCUAAAGAAGAGATT against Eri1,inactive: -0.547
4,GGAUCCAAGUUCCUGGCUCTT against Rtbdn,inactive: 0.256
5,GCCAUUAAGGAAAUGUUCUTT against Olfr426,inactive: -0.969
6,GGAAGUUUUUGAGAAUGGGTT against Ppp3cc,inactive: -0.38
7,GGGAUAUAGAACUGUUGAUTT against Olfr1048,inactive: -0.927
8,GCUCCUACUGUCCAGCAAUTT against Dusp18,inactive: -0.642
9,CGAGUAAGUUCAAUAGACCTT against Olfr954,inactive: -0.792
10,GGACAAGUUCAGCUACAUCTT against Ranbp9,inactive: -1.05
11,GGCUAUUUCUACCUGUAUCTT against Otop2,inactive: -0.584
12,CCUAUCAUAACGGUGAUAATT against Ddb1,inactive: -0.423
13,GGAUAAACAACAAUGAGAATT against Btg4,inactive: -1.72
14,GGUCCAGCACGUCAAAGACTT against Myo1f,inactive: 0.301
15,GGCAGGCUGUUUGAUCAAGTT against Cyp2a12,inactive: 1.01
16,GGAGUUUGUCAACGAGGUGTT against Arl10,inactive: -0.75
17,GGCUGUGUAUGCUGAUGUCTT against Cops7a,inactive: 0.0658
18,CGUGGUCAGUAAGAUUUAUTT against Rragd,inactive: 1.45
19,GCAACUUUUAAUUGGUCUATT against Agrn,inactive: -0.537
20,CCAAAAGCUUUUGUGUUCATT against Pnpla8,inactive: 0.358
21,GGCAUAUUGUUUCAUUUUGTT against Rlbp1,inactive: -1.19
22,GGAAACUGAGUUAGAUGCATT against Daglb,inactive: 0.562
23,GGACAGCAGAAGGUCUCAUTT against Lilra6,inactive: -0.358

# Some of the entries so far, bar-delimited.
row | Sequence | z-score
3 | GGAUGUUCUAAAGAAGAGATT against Eri1 | inactive: -0.547
19 | GCAACUUUUAAUUGGUCUATT against Agrn | inactive: -0.537
20 | CCAAAAGCUUUUGUGUUCATT against Pnpla8 | inactive: 0.358

# Continued:

row,Sequence,z-score
1,GGACUUGGUUUAUGAAACATT against Kif9,inactive: -1.33
2,GGGAUUAAGGAUAAAGUUGTT against Usp28,inactive: -0.452
3,GGAACAAGAAACCACAAUGTT against Agpat1,inactive: 0.281
4,GGCUUUAAUGCCUGUAUUATT against Ilvbl,inactive: -0.185
5,GGACCCAGUCAUCUAGUAUTT against Elmo2,inactive: 0.983
6,GGCUAAAGGUGUUGAUUUUTT against Slitrk6,inactive: 0.744
7,GCAAGAUUUAUCCCAGUCGTT against Rnf2,inactive: -1.83
8,CCAGACCAUUAACUUGAUUTT against Lsm8,inactive: -0.739
9,CCACGGGAGACAAGAUUCUTT against Hmbs,active: 3.18
10,GGCAGAUUCUAAAUAUAGCTT against Itga9,inactive: -0.52
11,GGCAAGUAUGUGUCCUUUGTT against Fhl3,inactive: -1.84
12,GGAGGUGAUGCAGAUGCUGTT against Gpi1,active: 3.06
13,GGGCGAGGAAGAAGAAUCUTT against Atad2b,inactive: 0.648
14,GGCUACCCAGGGAAUCAAGTT against Snapc4,inactive: 0.629
15,GGCCUAUUUUAUCCAUAGUTT against Olfr623,inactive: 0.194
16,GGAAGAAAAAGAUGAGAAATT against Hrc,inactive: 0.394
17,GCCUUUGUGGACCAUCCAATT against Thy1,inactive: -0.954
18,CCUUCAAACCUUUAAGCUUTT against Kcnk13,inactive: 0.573
19,CGGCGAUGGAAAAAAAUUUTT against Tmem178,inactive: 1.04
20,CCAUACUGUCAUAGCCCAATT against Olfr646,inactive: -0.425
21,CGGAAAGGAGCUAAAUGGCTT against Boc,inactive: -0.437
22,GGCUACAAGGAGAAGUUUGTT against Traf3,active: 2.02
23,GCAGGAUUAUGACACGUAUTT against Dgkq,inactive: 1.13

row,Sequence,z-score
1,GGGAACAUGCUCAUUGCAGTT against Olfr96,inactive: 1.42
2,GCCAGUCCUGAUAGCAUCATT against Rhox6,active: -3.2
3,CGAGCCUCUGUGAUAUCCATT against Cst11,active: -2.69
4,GGACUACGAAUACCCAUCGTT against Cck,inactive: -0.42
5,GUGACACUGCUGGGAAACATT against Olfr459,inactive: -0.972
6,GCAAUAUUUGGGCUAUUAUTT against Ss18,inactive: -0.588
7,CGUCAAUUCACACCAUUCATT against Gsk3a,inactive: -1.25
8,GGCAAUCAUGUGGACUUCATT against C230071H18Rik,inactive: 0.714
9,CCUGUAUUGGGAACAAUGUTT against Asphd2,inactive: 1.16
10,GCUUUUCGGGCAGGAGAGUTT against 1700034I23Rik,inactive: 0.396
11,GGGUACCUCGUGGUACAUUTT against Rapgef3,inactive: 0.352
12,CCAAGUAGGUCCUAGUCUATT against Cfap126,inactive: -0.648
13,CGGAGGAGAUAUUUAACCATT against Mtif3,inactive: -0.294
14,CCAGCUAUGAUUUACAUCUTT against Tdpoz1,inactive: -0.0659
15,GAUCAAAGAAACUCCUCCCTT against Zbtb25,inactive: 1.26
16,GGCAAAAUAUUGCACAGCGTT against Tsga10,inactive: -0.474
17,GCUCCUAAAACAUGAGAAUTT against Cdk9,inactive: -1.2
18,GGUAAUGAAUAGGAAACUCTT against Ostm1,inactive: -0.773
19,GCCUCUCGGUUAAUUGAUCTT against Lyve1,inactive: -0.404
20,GGAUUUCUUUGUGGAGCCCTT against Gm11961,inactive: -1.18
21,GGAGUGUGUAAAGACAUAATT against Rnase2a,inactive: -0.685
22,GCGGUUCGCUGUUUGUUUCTT against Zbtb11os1,active: 2.54
